Measurements: the supplement of paper PMC3334620
Over roughly 33,000 sequences, “E-score (-0.5 to 0.5)” has its median near -0.0034; the highest 2% begin near 0.25. The list shows a part of the results.

Target: T1, Yap3 (UniProt P38749)
T1 sequence: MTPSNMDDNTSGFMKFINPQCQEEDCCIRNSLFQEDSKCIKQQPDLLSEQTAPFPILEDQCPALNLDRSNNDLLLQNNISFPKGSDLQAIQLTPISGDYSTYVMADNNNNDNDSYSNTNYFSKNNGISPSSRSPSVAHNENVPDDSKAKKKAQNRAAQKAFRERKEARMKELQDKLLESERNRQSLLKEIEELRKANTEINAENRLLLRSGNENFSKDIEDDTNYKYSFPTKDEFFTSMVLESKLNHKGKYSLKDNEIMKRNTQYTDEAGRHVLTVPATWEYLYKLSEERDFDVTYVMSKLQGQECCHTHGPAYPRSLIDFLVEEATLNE
Experiment: PBM E-score (8-mer binding enrichment) (E-score (-0.5 to 0.5)); higher = stronger / more preferred TF binding
Conditions: protein concentration: 100 nM; construct: GST-full length
Summary of the method: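 Using PURExpress in vitro transcription/translation, GST-tagged yeast transcription factors were made in full-length or DNA-binding-domain form. These were applied at about 100-200 nM to double-stranded universal all-10-mer Agilent arrays, and bound protein was detected with fluorescent anti-GST. Scans were normalised with masliner before the Universal PBM Analysis Suite assigned E-scores to ungapped eight-base words pooled with their reverse complements.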

Sequence	PBM E-score
CTCCTCTA	-0.14
AAAGCTAC	-0.081
CACCAACG	-0.0927
AGTCAGTG	-0.00717
AGGAAACC	-0.101
ACACGGGG	-0.139
GACGGAAA	0.212
CTTGCCCA	-0.0745
CCGTAAAA	-0.00748
GGGTAAAA	0.258
AAATTTCG	0.0725
AGCAGCCT	-0.17
GGCCCCCC	-0.461
GAAATAGA	0.0646
GAAGTACC	-0.0826
GTCTCGCA	-0.0565
CAGTCGTA	-0.0883
AATATCAG	0.121
ACTATAGT	0.226
GTTCGCAA	0.166
CTGCGGCC	-0.188
CTGCGGGC	-0.235
CCGATGTA	-0.0164
CTTCTACC	-0.0153
ATAGCCAC	-0.0162

As entered above:
Entry for CTCCTCTA under PBM E-score: -0.14
Entry for GTCTCGCA under PBM E-score: -0.0565
Entry for AGGAAACC under PBM E-score: -0.101
Entry for AATATCAG under PBM E-score: 0.121

Remaining list, next part

Sequence	PBM E-score
ACATAGGC	0.0672
AGACCGTC	-0.195
CCTCCGCG	-0.136
TATAGAAA	0.0802
AAAGTACC	0.176
CGCCGGCG	-0.00299
CGCTAGAC	-0.253
CATTAAAG	0.0898
CTTAAAAC	0.136
AATCGGGT	0.17
ACAACACC	0.0347
AGTAACGC	-0.0151
AAACATGC	0.09
ATTAGCTG	0.0446
AGCGGGGC	-0.188
ACCATACG	0.0626
AGCGAATG	-0.101
AAGGCCTG	-0.151
GGTTTACA	0.161
ATCCAAAA	0.208
GCTTCAGA	-0.0796
CTCATGAG	-0.1
GAACTAGC	0.0152
CCATAAGA	0.0674
CTGAAATA	0.165

Sequence	PBM E-score
AACCTTCC	-0.0911
GCGTCACC	-0.173
CAGAAACG	0.147
ATCGAAAA	0.124
CGGGCGCA	-0.12
GATGAAAC	0.112
AAAGTTTA	0.168
TAATTACA	0.232
ACCCGTGA	-0.117
CACCTTCA	0.014
AGCCGCTG	-0.169
AAGGAGGT	-0.155
GGGACCCC	-0.334
CTGCTAAC	0.0329
ACCACACC	-0.111
AGCCGCTC	-0.0187
ATATGCGG	0.0287
CTCCTCGC	-0.173
AACTCTAG	0.0326
AGATCCCT	-0.213
AGGTCGGC	-0.191
CAAGTACC	-0.0926
ACGGAGTG	-0.0637
AGCGCCAT	-0.148
CACTGTGC	0.0315

Sequence	PBM E-score
CACAGGGG	-0.353
AATGACGG	0.132
AAAATGAG	0.162
TGCGAACA	0.0408
ATCGCTAG	-0.0254
GGGGAAGA	-0.135
AGTTGCCA	-0.128
ACCATCCC	0.0119
ACTCCAAA	-0.0179
CTTCCCTA	-0.0518
CTGGTAAC	0.121
CCTGTCGA	-0.0238
AGCTAGGA	-0.0851
AACAGACT	0.078
AATCTGGG	-0.156
ATAAGCGG	0.0448
GCACCCAC	0.106
AAGGGGAA	-0.118
CCCGTACC	-0.0527
ACTAGGAT	-0.0127
ACAGGGGC	-0.137
AGTAGAAG	0.0935
AAGACAGT	-0.0374
CAGTGGTA	-0.0994
CCCCGAAC	-0.191

Sequence	PBM E-score
CCCCTGAC	-0.178
AGTATTTC	0.142
TATGTGGA	0.159
ATGACCGG	0.0112
GATTCTCC	-0.15
ACTCGAGC	0.0632
TAGGAGAA	-0.178
AAATCGGT	-0.0628
AAACTCGT	0.172
CCCTTCAA	-0.207
GTGGCCGA	-0.0536
AACGATCA	-0.0479
AAACTGAG	-0.0131
CAGTTAGC	-0.145
CACTCAGA	0.0728
AGCAGGAC	-0.0425
GTGGATTA	0.129
CTGCTACC	-0.0703
CCATAGTA	0.0671
AGTGAACG	0.0345
ATCGTGAC	-0.00843
ATTCTCGA	0.235
GCTTAGTA	0.198
CAATTACC	0.0788
GAGGTTAA	0.0046

In another format: results already given
Sequence | PBM E-score
TATGTGGA | 0.159
AAATCGGT | -0.0628
AGCAGGAC | -0.0425
CCATAGTA | 0.0671
GCTTAGTA | 0.198
CAATTACC | 0.0788
GAGGTTAA | 0.0046

(next part)

Sequence	PBM E-score
GCCAACCC	-0.212
AGAGGCCC	-0.15
ATTTTATC	0.235
AGCGATTC	0.0497
ACTCCTTG	-0.0307
AAATACGA	0.18
ACGCTACC	-0.206
CAGGAGGC	-0.111
GCCATCGA	0.0216
GCAAAAGC	0.0339
CGGTCGTA	-0.167
ACGAGGCA	-0.0571
CAAGGTAG	-0.142
GGGGTCCA	-0.233
CACGAGGC	0.0285
CGGCAAAA	0.0732
CTTTCGCA	-0.0437
ATCTAAAT	0.172
CTTCGGTC	-0.0297
CGCCGGAG	-0.169
AACTAAAC	0.138
CGTGTGAG	-0.0579
GAATGATA	0.295
ACGGCACT	-0.0565
AAAACTCA	0.218

Sequence	PBM E-score
CATCGACC	-0.00165
AGATGTGA	0.155
AAGCAATT	0.0889
GCATTTTA	0.227
TATGAAGA	0.237
CCAGTTCG	-0.114
AGGAATCC	-0.205
ATCGGGTA	-0.101
TACATCGA	0.0238
CTTACGCC	0.086
ACGCTGAC	-0.00494
GCCTAAAA	-0.0144
CCTGCGCA	-0.158
GTACCAAC	0.144
ATCGAAAC	-0.00841
CAGGCCCA	-0.2
ACAGCTAT	-0.0451
CCGTCCTA	-0.0795
CAGTGACG	-0.0475
GCTGTTAA	0.0906
ACGCGTTG	-0.027
AATCGAGT	-0.0115
